Results published in the supplement of paper PMC12823440, “Inhibitors supercharge kinase turnover through native proteolytic circuits” (Nature, 2025).
Counter-ions that a name gives are not always drawn. This is one part of the list. Hit calls seldom repeat between salt and free forms of one compound.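 Kinases were expressed as nanoluciferase fusions in K562 cells and luminescence was read every 4 h between 2 and 18 h as percent of control, DMSO set to 100% and a positive control to 0%. A time point counts as decreased when the signal drops significantly (2 sigma). The hit call is the authors' own, does not follow from the count of time points alone, and its rule is not shown.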

Amino acid sequences for entries named in this document (tags omitted).
UniProt P28482, whole entry: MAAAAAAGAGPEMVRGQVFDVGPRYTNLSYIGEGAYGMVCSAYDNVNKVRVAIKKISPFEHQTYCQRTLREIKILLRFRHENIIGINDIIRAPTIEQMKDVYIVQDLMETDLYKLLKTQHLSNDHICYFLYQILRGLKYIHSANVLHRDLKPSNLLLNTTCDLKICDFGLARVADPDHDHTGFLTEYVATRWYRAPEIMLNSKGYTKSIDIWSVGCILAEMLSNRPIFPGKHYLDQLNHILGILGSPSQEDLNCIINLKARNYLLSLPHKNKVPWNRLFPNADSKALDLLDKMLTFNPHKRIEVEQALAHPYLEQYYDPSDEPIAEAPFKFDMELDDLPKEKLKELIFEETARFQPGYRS

Target: MAPK1 (UniProt P28482)
Experiment: number of time points (of 5) at which kinase-Nluc abundance scored as decreased, DMSO-normalised (count); higher = more persistent destabilization
Conditions: K562; 2-18 h

| Structure (SMILES) | number of time points |
| --- | --- |
| C=C(CCC=C(C)C)[C@H]1CC[C@]2(C)[C@@H]1[C@H](O)C[C@@H]1[C@@]3(C)CC[C@H](O[C@@H]4O[C@H](CO)[C@@H](O)[C@H](O)[C@H]4O[C@@H]4O[C@H](CO)[C@@H](O)[C@H](O)[C@H]4O)C(C)(C)[C@@H]3CC[C@]12C [Ginsenoside Rk1] (10 µM) | 0 |
| CCn1c(=O)c(-c2ccc(-c3cncs3)cc2Cl)cc2cnc(Nc3ccc(N4CCN(C)CC4)cc3)nc21 (2.5 µM) | 0 |
| Nc1nccc(Oc2ccc(NC(=O)c3cn(COP(=O)(O)O)cc(-c4ccc(F)cc4)c3=O)cc2F)c1Cl (10 µM) | 0 |
| Cc1cc(-c2cc(OC(=O)c3ccccc3)ccc2Cl)cc2nnc(Nc3ccc(OCCN4CCCC4)cc3)nc12 (0.5 µM) | 0 |
| OC[C@H]1O[C@@H](Oc2cc3c(O)cc(O)cc3[o+]c2-c2cc(O)c(O)c(O)c2)[C@H](O)[C@@H](O)[C@@H]1O [Delphinidin 3-glucoside (chloride)] (10 µM) | 0 |
| O=C(/C=C/c1ccc(O)c(O)c1)c1ccc(O[C@@H]2O[C@H](CO)[C@@H](O)[C@H](O)[C@H]2O)c(O)c1O [Marein] (10 µM) | 0 |
| O=C1Nc2nc(-c3c(O)cccc3OCC3CC3)cc([C@@H]3CCCNC3)c2CO1 [Bay 65-1942 (hydrochloride)] (10 µM) | 0 |
| CC(C)CN(CC(=O)N1CCN(CC(OCc2ccc3ccccc3c2)c2ccc(Cl)cc2Cl)CC1)CC(C)C (centres undefined) [LYN-1604 (dihydrochloride)] (2.5 µM) | 0 |
| CCc1cc(O)c(F)cc1-c1ccc2c(-c3nc4c([nH]3)CN(C3CCN(C)CC3)CC4)n[nH]c2c1 [JAK-IN-5 (hydrochloride)] (2 µM) | 0 |
| Cc1ccc(Nc2cc(-c3cccc(N4C(=O)c5ccccc5C4=O)c3)ncn2)cc1NS(C)(=O)=O (10 µM) | 0 |
| C=C1C(=O)O[C@@H]2C[C@@]3(C)CCC[C@H](C)C3=C[C@H]12 [Alantolactone] (10 µM) | 0 |
| C=C(C)C(=O)Nc1cccc(-c2ncnc3[nH]cc(C(=O)OCC)c23)c1 (10 µM) | 0 |
| CNc1nc(Nc2cnn(C3CCN(C4COC4)CC3F)c2Cl)ncc1C(F)(F)F (centres undefined) (10 µM) | 0 |
| Cc1cc(Nc2cc(Cl)nc(Oc3ccc([N+](=O)[O-])cc3)n2)n[nH]1 [Autophinib] (2.5 µM) | 0 |
| CC(C)=CC[C@H](O)C1=CC(=O)c2c(O)ccc(O)c2C1=O [(-)-Alkannin] (2.5 µM) | 0 |
| CNCc1ccccc1-c1csc([C@@H](C)Nc2nc(C)nc3cc(OC)c(OC)cc23)c1 (2.5 µM) | 0 |
| COc1ncc(-c2nc(N3CCOCC3)nc3c(CN4CCC(C(C)(C)O)CC4)cc(F)cc23)cc1NS(C)(=O)=O [Linperlisib] (10 µM) | 0 |
| O=C(Nc1ccc(F)cc1F)[C@H](NC(=S)Nc1cc(C(F)(F)F)cc(C(F)(F)F)c1)c1ccccc1 (2.5 µM) | 0 |
| O=C1NC(=O)C(=Cc2ccc(-c3ccc(F)cc3)o2)S1 (stereo in doubt) (10 µM) | 0 |
| CCOc1cc(C(=O)N2CCC(N3CCN(C)CC3)CC2)ccc1Nc1ncc2c(n1)N(C1CCCC1)c1ccccc1C(=O)N2C (10 µM) | 0 |

| Structure (SMILES) | number of time points |
| --- | --- |
| OC(COc1ccc(C(F)(F)F)cc1)CN(Cc1ccccc1)Cc1ccccc1 (centres undefined) (2.5 µM) | 0 |
| C[C@@H]1C(=O)O[C@H](C)[C@H]1C[C@@H](O)[C@](C)(O)[C@H]1CC[C@@]2(O)C3=CC(=O)[C@@H]4C[C@@H](O)[C@@H](O)C[C@]4(C)[C@H]3CC[C@]12C [Cyasterone] (10 µM) | 0 |
| Cc1c(CN2CCN(C(=O)[C@H](C)O)CC2)sc2c(N3CCOCC3)nc(-c3cnc(N)nc3)nc12 [Apitolisib] (10 µM) | 0 |
| CC(C)(C)NC(=O)c1cncn1C1CCN(c2ccc(-c3nnc(C(F)(F)F)o3)cn2)CC1 (10 µM) | 0 |
| NCc1ccc(Nc2ncc(F)c(Nc3ccccc3)n2)cc1 (10 µM) | 0 |
| COC1(c2sc3c(N4CCOCC4)nc(-c4cnc(N)nc4)nc3c2C)COC1 (2.5 µM) | 0 |
| COc1cc2c[n+](C)c3c4cc5c(cc4ccc3c2cc1OC)OCO5 [Nitidine (chloride)] (2 µM) | 0 |
| N#Cc1ccc2ncnc(NC3CCC(N4CCOCC4)CC3)c2c1 (centres undefined) (10 µM) | 0 |
| COc1ccc2c(c1O)OC(C)(C)c1c-2ccc2c1C(=O)N(c1ccc(C(=O)c3ccccc3)cc1)C2=O [Ampkinone] (10 µM) | 0 |
| CC1=C2C(=O)O[C@@H](c3ccoc3)[C@]2(C)CCC1 [Fraxinellone] (10 µM) | 0 |
| CS(=O)(=O)c1ccc(-c2cnc(N)c(C(=O)Nc3ccccc3)n2)cc1 (10 µM) | 0 |
| O=C(NC(NC(=S)Nc1ccc(F)c([N+](=O)[O-])c1)C(Cl)(Cl)Cl)C(c1ccccc1)c1ccccc1 (centres undefined) (10 µM) | 0 |
| COc1cc(C(N)=O)nc(-c2cccc(C#C[C@]3(O)CCN(C)C3=O)c2)c1 (10 µM) | 0 |
| O=C(Nc1cc(Oc2cc(F)c(NC(=O)C3(C(=O)Nc4ccc(F)cc4)CC3)cc2F)ccn1)C1CC1 [Altiratinib] (10 µM) | 0 |
| COc1ccc(Cl)cc1NC(=O)Nc1cc(C)nc2ccccc12 (2.5 µM) | 0 |
| COc1ccc(CC(=O)Nc2nc3c(s2)CCc2ccccc2-3)cc1OC (10 µM) | 0 |
| N[C@H](Cc1c[nH]c2ccccc12)C(=O)N/N=C/c1ccc2nccnc2c1 [Rhosin (hydrochloride)] (10 µM) | 0 |
| CC(C)(C)c1ccc(S(=O)(=O)Nc2ccc(-n3ccnc3)cc2)cc1 (10 µM) | 0 |
| Cc1ccc(-c2c(C(=O)CF)n(CCCO)c3ncnc(N)c23)cc1 (10 µM) | 0 |

In the list so far, two have a tert-butyl group.

| Structure (SMILES) | number of time points |
| --- | --- |
| CC(C)(C)NC(=O)c1cncn1C1CCN(c2ccc(-c3nnc(C(F)(F)F)o3)cn2)CC1 (10 µM) | 0 |
| CC(C)(C)c1ccc(S(=O)(=O)Nc2ccc(-n3ccnc3)cc2)cc1 (10 µM) | 0 |
